In the supplement of paper PMC12067093, “Discovery and optimisation of a covalent ligand for TRIM25 and its application to targeted protein ubiquitination” (Chemical Science, 2025):
This is one part of the list.

Chains of the proteins cited; added tags and fusions are not shown. Lines headed by an entry give the natural chain unless they say otherwise; changes in a name come on top.
UniProt A6NC98: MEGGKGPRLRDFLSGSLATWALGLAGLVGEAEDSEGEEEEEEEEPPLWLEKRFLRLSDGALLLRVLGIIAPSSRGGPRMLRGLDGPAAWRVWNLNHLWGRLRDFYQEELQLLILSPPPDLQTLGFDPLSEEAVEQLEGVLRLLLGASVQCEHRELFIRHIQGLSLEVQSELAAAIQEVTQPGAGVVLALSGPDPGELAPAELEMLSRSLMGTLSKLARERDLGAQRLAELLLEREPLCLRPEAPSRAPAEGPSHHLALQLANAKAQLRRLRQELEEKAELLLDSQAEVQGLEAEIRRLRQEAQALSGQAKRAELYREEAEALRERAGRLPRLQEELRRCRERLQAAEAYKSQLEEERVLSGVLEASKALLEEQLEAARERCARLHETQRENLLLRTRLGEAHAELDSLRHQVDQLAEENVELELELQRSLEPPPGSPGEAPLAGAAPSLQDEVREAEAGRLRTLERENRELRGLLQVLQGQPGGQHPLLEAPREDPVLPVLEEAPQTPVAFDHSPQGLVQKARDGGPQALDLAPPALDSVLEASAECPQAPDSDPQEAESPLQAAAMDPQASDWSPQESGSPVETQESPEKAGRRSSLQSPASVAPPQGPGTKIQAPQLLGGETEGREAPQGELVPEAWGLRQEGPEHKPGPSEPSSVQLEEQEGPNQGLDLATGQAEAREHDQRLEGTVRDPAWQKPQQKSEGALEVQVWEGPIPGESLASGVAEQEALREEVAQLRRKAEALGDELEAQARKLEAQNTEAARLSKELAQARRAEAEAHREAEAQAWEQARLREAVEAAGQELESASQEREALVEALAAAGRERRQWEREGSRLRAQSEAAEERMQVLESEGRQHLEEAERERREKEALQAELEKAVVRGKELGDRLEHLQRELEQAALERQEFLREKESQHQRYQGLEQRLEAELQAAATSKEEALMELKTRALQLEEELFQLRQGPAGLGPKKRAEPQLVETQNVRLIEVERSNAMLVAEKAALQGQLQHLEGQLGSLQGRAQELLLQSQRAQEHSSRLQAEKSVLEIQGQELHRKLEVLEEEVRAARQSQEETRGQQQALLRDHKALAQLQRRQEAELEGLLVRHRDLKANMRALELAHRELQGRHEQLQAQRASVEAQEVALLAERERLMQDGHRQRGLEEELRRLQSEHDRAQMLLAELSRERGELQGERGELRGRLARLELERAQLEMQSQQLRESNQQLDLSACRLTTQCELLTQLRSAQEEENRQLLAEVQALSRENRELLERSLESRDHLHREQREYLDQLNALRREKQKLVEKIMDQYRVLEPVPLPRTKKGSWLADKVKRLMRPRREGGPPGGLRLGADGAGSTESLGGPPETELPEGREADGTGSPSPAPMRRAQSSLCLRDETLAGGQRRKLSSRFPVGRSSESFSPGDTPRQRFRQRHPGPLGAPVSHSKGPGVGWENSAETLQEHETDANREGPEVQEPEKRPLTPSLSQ
UniProt P16152: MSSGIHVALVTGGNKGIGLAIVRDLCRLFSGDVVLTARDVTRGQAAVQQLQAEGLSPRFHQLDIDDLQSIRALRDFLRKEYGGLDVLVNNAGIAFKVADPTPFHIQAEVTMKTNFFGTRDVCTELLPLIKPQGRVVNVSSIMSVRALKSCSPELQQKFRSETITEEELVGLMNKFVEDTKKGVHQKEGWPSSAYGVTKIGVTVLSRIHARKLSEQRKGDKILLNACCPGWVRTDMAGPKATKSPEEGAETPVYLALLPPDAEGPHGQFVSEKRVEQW
UniProt P42575: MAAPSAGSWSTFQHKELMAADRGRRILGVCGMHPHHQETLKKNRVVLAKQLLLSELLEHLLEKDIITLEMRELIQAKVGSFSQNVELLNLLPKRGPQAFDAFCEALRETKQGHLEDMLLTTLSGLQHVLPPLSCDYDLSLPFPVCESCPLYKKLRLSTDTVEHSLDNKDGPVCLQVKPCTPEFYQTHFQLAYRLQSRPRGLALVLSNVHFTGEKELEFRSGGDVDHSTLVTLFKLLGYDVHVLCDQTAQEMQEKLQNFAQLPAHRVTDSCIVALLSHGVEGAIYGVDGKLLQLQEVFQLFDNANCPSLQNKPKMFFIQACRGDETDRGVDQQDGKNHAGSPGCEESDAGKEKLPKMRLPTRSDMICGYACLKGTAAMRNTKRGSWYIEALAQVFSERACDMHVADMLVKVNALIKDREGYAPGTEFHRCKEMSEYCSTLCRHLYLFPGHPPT
UniProt P29466: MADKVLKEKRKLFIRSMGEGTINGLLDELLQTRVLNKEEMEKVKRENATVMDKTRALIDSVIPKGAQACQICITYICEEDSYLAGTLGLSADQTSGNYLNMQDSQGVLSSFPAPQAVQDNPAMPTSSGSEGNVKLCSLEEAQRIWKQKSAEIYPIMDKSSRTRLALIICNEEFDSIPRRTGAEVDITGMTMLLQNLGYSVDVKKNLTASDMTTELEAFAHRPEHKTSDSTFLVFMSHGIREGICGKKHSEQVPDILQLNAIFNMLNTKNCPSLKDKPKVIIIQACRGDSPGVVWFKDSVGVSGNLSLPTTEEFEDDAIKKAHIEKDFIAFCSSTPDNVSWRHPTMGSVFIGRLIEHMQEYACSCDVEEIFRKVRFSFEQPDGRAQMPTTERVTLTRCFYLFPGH
UniProt O75808: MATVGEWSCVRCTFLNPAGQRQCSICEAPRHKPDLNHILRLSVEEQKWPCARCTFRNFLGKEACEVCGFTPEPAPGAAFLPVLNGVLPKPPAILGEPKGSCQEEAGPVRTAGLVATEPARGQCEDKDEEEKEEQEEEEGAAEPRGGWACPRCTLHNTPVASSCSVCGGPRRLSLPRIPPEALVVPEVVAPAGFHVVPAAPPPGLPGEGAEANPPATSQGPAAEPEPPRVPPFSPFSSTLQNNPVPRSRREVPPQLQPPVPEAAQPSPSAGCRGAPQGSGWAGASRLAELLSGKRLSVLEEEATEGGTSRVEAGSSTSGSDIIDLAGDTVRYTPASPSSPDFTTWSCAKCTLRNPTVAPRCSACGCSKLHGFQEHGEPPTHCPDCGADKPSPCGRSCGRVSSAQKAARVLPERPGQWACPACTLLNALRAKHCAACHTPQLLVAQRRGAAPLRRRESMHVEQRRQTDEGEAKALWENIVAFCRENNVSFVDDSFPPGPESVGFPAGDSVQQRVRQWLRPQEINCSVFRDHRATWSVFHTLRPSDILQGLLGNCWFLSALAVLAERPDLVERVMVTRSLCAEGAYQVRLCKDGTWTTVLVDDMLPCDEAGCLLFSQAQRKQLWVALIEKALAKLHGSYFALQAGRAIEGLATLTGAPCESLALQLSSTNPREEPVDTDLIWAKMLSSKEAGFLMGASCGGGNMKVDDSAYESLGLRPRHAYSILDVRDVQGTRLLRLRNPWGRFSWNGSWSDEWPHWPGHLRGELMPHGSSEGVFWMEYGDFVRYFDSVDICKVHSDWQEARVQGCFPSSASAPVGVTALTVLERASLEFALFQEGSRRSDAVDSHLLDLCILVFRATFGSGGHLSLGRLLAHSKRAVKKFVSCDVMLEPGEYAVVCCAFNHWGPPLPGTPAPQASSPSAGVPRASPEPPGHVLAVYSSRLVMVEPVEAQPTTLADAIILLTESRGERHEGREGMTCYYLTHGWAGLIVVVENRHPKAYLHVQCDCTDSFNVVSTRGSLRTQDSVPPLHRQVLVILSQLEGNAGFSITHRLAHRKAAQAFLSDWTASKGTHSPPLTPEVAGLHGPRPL
UniProt P40123, whole entry, looked up: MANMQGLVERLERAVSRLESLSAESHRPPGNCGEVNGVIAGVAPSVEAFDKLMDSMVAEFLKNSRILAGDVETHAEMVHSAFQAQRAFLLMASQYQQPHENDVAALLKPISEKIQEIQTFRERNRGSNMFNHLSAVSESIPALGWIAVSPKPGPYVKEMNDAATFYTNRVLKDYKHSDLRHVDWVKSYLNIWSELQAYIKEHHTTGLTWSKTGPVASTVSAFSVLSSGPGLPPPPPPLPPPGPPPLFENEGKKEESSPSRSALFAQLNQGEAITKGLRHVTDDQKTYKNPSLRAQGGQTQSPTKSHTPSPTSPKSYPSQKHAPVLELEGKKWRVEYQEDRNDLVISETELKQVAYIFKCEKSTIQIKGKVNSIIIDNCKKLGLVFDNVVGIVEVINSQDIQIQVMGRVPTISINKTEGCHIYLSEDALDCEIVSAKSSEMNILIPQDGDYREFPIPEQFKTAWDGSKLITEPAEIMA
UniProt P49368: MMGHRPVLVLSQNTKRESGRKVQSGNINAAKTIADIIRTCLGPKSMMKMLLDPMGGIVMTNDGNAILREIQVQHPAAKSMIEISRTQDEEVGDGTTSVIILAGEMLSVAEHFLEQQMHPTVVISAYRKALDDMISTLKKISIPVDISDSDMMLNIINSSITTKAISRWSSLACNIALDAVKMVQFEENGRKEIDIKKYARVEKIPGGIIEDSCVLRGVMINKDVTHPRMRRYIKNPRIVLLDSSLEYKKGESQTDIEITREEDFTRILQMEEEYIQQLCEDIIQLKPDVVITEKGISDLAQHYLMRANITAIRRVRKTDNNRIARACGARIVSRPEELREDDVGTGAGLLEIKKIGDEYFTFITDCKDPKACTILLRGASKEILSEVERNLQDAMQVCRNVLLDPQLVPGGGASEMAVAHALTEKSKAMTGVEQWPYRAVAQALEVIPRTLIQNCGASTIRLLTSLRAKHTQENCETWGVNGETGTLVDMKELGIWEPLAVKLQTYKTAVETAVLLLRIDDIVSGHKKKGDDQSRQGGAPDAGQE
UniProt P27824: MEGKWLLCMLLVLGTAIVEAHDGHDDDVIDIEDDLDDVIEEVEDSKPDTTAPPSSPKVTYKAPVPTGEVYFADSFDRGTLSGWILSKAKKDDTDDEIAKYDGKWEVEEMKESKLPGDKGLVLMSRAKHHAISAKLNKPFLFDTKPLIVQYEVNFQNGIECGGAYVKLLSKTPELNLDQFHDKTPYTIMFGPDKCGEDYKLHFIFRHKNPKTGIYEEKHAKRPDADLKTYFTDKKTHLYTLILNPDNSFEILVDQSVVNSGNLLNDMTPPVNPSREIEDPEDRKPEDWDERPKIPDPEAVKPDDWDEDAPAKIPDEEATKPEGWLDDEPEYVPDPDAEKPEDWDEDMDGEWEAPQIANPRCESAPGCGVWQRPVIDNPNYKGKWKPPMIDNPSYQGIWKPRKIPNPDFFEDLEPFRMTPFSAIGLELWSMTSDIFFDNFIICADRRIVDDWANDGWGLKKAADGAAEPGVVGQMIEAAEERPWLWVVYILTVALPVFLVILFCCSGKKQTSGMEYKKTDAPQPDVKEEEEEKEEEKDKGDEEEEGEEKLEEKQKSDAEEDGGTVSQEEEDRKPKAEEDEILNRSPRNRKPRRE
UniProt Q9Y6W3: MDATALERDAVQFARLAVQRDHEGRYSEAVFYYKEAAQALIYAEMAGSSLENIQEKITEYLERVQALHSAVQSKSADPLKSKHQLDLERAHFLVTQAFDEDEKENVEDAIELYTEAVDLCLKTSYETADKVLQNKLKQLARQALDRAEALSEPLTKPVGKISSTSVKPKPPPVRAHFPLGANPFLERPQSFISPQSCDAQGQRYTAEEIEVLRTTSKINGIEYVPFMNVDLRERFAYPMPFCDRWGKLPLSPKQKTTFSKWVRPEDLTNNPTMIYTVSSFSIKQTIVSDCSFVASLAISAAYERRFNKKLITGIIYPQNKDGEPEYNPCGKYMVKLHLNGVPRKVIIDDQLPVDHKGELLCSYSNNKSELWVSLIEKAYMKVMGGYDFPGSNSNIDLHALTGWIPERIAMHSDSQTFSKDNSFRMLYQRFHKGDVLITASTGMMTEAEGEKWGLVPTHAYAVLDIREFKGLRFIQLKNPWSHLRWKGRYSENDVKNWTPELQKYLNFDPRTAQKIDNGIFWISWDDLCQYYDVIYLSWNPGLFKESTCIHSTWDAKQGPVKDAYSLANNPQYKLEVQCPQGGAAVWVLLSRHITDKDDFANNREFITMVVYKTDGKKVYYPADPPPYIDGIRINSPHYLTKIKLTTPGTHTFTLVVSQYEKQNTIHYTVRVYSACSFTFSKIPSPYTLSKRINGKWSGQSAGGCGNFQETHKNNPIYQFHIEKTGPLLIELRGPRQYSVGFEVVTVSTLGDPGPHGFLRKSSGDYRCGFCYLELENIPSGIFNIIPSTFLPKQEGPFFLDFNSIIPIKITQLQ
UniProt Q01518, whole entry, looked up: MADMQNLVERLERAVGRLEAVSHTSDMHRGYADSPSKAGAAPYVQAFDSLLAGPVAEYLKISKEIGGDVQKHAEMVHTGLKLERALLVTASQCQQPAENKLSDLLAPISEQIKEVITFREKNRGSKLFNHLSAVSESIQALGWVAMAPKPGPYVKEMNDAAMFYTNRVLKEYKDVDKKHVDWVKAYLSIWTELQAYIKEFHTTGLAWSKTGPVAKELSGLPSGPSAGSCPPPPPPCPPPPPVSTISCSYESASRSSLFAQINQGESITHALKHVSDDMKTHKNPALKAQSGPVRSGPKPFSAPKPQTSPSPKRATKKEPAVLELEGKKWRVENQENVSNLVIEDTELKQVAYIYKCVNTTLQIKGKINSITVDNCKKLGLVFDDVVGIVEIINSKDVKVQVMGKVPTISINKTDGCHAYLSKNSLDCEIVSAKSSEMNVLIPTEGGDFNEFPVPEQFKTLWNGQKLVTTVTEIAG

These targets were tested with CC1Cc2ccccc2N1C(=O)C1CCCN(C1)C(=O)CCl (mixture of isomers) [TRIM25 ligand 11 (diastereomer mixture)] (assay: probe-labelled cysteine peptide fold change vs DMSO (competition) (log2 fold change); higher = less target engagement (more negative = stronger competition)). Details: 10 µM; THP-1; incubation time: 4 h.
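Note: competitive chemoproteomic profiling in live THP-1 cells with an iodoacetamide desthiobiotin (IA-DTB) probe, comparing probe-labelled peptide intensities in compound-treated cells against DMSO-treated controls.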

Target | probe-labelled cysteine peptide fold change
CASP8AP2_Q9UKL3_174_SPHLDDCSK (UniProt Q9UKL3) | 0.238
CCDC88B_A6NC98_1222_ESNQQLDLSACR (UniProt A6NC98) | -0.0803
CASP10_Q92851_97_LLQHLNCTK (UniProt Q92851) | 0.0117
CCAR2_Q8N163_644_PLSSGGEEEEKPRGEASEDLCEMALDPELLLLR (UniProt Q8N163) | 0.425
CBR1_P16152_150_SCSPELQQK (UniProt P16152) | -0.0902
CAST_P20810_381_SESELIDELSEDFDRSECK (UniProt P20810) | -0.0782
CC2D1B_Q5T0F9_809_LERLENECEIR (UniProt Q5T0F9) | 0.0806
CCDC86_Q9H6F5_127_CSQDQGVLASELAQNK (UniProt Q9H6F5) | 0.209
CASP2_P42575_173+179_DGPVCLQVKPCTPEFYQTHFQLAYR (UniProt P42575) | -0.13
CCAR1_Q8IX12_465_SCALAEDPQELRDGFQHPAR (UniProt Q8IX12) | -0.476
CASP1_P29466_362_LIEHMQEYACSCDVEEIFR (UniProt P29466) | 0.023
CCNB2_O95067_314_VAAAASCLSQK (UniProt O95067) | 0.054
CAPN15_O75808_9_ATVGEWSCVR (UniProt O75808) | 0.348
CASP2_P42575_399_ACDMHVADMLVK (UniProt P42575) | -0.0528
CAP2_P40123_430_TEGCHIYLSEDALDCEIVSAK (UniProt P40123) | 0.127
CBFA2T3_O75081_405_HLNNLLNCIMDMVEK (UniProt O75081) | -0.0116
CCT3_P49368_398_NLQDAMQVCR (UniProt P49368) | -0.0864
CASP1_P29466_136_LCSLEEAQR (UniProt P29466) | -0.0101
CAPZA2_P47755_111_EATDPRPCEVENAVESWR (UniProt P47755) | 0.0298

In a second layout: entries from further up.
Target	probe-labelled cysteine peptide fold change
CCDC88B_A6NC98_1222_ESNQQLDLSACR (UniProt A6NC98)	-0.0803
CBR1_P16152_150_SCSPELQQK (UniProt P16152)	-0.0902
CASP2_P42575_173+179_DGPVCLQVKPCTPEFYQTHFQLAYR (UniProt P42575)	-0.13
CASP1_P29466_362_LIEHMQEYACSCDVEEIFR (UniProt P29466)	0.023
CAPN15_O75808_9_ATVGEWSCVR (UniProt O75808)	0.348
CAP2_P40123_430_TEGCHIYLSEDALDCEIVSAK (UniProt P40123)	0.127

(list continues)

Target | probe-labelled cysteine peptide fold change
CAPNS1_P04632_190_SGTICSSELPGAFEAAGFHLNEHLYNMIIRR (UniProt P04632) | -0.129
CARS_P49589_525_ALVSQCNLYMAAR (UniProt P49589) | -0.0945
CANX_P27824_360+366_CESAPGCGVWQR (UniProt P27824) | 0.12
CCDC82_Q8N4S0_422+424_NPENCSCQACGLHR (UniProt Q8N4S0) | 0.343
CASP8_Q14790_309+313_IYQLMDHSNMDCFICCILSHGDK (UniProt Q14790) | 0.128
CAPN7_Q9Y6W3_361_KVIIDDQLPVDHKGELLCSYSNNK (UniProt Q9Y6W3) | -0.139
CCAR2_Q8N163_515_PGCVNLSLHGIVEDR (UniProt Q8N163) | 0.284
CARM1_Q86X55_438_AGDTLSGTCLLIANKR (UniProt Q86X55) | -0.00211
CAP1_Q01518_93_ALLVTASQCQQPAENK (UniProt Q01518) | 0.00612
CAPNS1_P04632_232_YSDESGNMDFDNFISCLVR (UniProt P04632) | 0.216
CAP1_Q01518_375_GKINSITVDNCKK (UniProt Q01518) | -0.531
CCT4_P50991_120_AQDIEAGDGTTSVVIIAGSLLDSCTK (UniProt P50991) | -4.03e-05
CAPN7_Q9Y6W3_329_DGEPEYNPCGK (UniProt Q9Y6W3) | 0.0278
CARNMT1_Q8N4J0_115_CIDHNQEILLTIVNDCIHMFENK (UniProt Q8N4J0) | 0.186
CBL_P22681_572_RPLPCTPGDCPSR (UniProt P22681) | -0.0794
CCDC88B_A6NC98_1382_AQSSLCLRDETLAGGQR (UniProt A6NC98) | -0.221
CCDC91_Q7Z6B0_424_SLSSLELFLSCAQK (UniProt Q7Z6B0) | 0.0206
CASP1_P29466_362+364_LIEHMQEYACSCDVEEIFRK (UniProt P29466) | -0.216
CASP4_P49662_142_LALIICNTEFDHLPPR (UniProt P49662) | -0.00871
